Measurements: paper PMC6153294
Results are given in words; binding and its absence hold for the method and conditions named.

The chains behind the UniProt entries cited, without tags or fusion partners. Residues count along the entry.
UniProt Q86Z14, residues 52-967: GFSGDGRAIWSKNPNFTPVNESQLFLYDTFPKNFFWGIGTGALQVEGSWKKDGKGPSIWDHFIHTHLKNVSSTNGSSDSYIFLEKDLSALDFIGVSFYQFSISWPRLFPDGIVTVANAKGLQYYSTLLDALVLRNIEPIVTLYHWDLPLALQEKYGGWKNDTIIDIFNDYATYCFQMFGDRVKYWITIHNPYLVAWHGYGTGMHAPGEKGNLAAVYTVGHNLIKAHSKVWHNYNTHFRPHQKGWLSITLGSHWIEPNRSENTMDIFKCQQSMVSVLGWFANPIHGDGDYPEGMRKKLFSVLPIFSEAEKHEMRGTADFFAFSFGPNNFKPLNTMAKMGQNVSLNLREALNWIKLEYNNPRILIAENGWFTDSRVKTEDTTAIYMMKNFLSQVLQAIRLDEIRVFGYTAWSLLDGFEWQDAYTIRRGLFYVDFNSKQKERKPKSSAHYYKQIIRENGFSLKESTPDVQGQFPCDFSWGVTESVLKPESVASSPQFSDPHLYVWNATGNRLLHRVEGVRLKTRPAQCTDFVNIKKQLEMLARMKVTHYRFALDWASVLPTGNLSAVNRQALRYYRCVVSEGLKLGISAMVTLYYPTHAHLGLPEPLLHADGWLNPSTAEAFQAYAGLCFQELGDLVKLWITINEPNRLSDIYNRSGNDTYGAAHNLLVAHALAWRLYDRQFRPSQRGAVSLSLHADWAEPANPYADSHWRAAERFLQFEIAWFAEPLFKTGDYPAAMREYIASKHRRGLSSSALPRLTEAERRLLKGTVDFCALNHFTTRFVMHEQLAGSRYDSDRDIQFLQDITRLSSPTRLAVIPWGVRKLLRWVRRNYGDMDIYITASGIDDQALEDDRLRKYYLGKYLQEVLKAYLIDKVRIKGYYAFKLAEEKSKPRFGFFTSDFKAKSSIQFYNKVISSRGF

Tests used:
[1] = target: full-length extracellular domain of β-Klotho (residues 52–967) (human) (UniProt Q86Z14); test: negative stain EM; purified β-Klotho or β-Klotho/Fab 39F7 complex at 10 μg/ml in 25 mM Hepes, pH 7.5, 150 mM NaCl; 2% uranyl acetate; reference-free 2D class averages; both purified
[2] = target: full-length extracellular domain of β-Klotho (residues 52–967) (human) (UniProt Q86Z14); test: SEC; size-exclusion chromatography profile of full-length β-Klotho (Fig. S2); conditions not given; both purified

Q: How did the binding [1] turn out when “full-length extracellular domain of β-Klotho (residues 52–967) (from UniProt Q86Z14 52-967) (domain or fragment)” was run?
A: no binding

Q: And the binding [2]?
A: no binding
